{"source": "patent US12516015B2", "about": "(AMALIVE LIMITED, priority 2009, dated 2026)", "settings": "Temp. Cycling", "note": "Read-outs that look alike come from different tables or passages of the source."}
{"smiles": "NCCC[C@H](N)C(=O)O.O=C(O)Cc1ccccc1", "note": "[L-ornithine phenyl acetate]", "values": [{"measurement": "Results (crystalline form)", "setting": "Test 1, cyclohexanone", "value": "Form II"}, {"measurement": "Results (crystalline form)", "setting": "Test 12, ethanol/acetone (50:50)", "value": "Form II"}, {"measurement": "Results (crystalline form)", "setting": "Test 23, acetic acid", "value": "Form IV"}, {"measurement": "Results (crystalline form)", "setting": "Test 34, 1-propanol", "value": "Form II"}, {"measurement": "Results (crystalline form)", "setting": "Test 45, dimethylcarbonate", "value": "Form II"}, {"measurement": "Results (crystalline form)", "setting": "Test 56, NMP", "value": "Form II"}, {"measurement": "Results (crystalline form)", "setting": "Test 67, EtOAc/cyclohexane (1:2)", "value": "Form II"}, {"measurement": "Results (crystalline form)", "setting": "Test 78, etOAc/toluene (1:2)", "value": "Form II"}, {"measurement": "Results (crystalline form)", "setting": "Test 89, IPA/diisopropyl ether (1:2)", "value": "Form II"}, {"measurement": "Results (crystalline form)", "setting": "Test 100, DIPE", "value": "Form II"}, {"measurement": "Results (crystalline form)", "setting": "Test 111, nitromethane/water (20%)", "value": "No Solid"}, {"measurement": "Results (crystalline form)", "setting": "Test 122, acetone/water (20%)", "value": "No Solid"}, {"measurement": "Results (crystalline form)", "setting": "Test 133, 1,4 dioxane/water (20%)", "value": "Form II"}, {"measurement": "Results (crystalline form)", "setting": "Test 144, diethyl ether", "value": "Form II"}, {"measurement": "Results (crystalline form)", "setting": "Test 155, ethylene glycol", "value": "Form II"}, {"measurement": "Results (crystalline form)", "setting": "Test 166, meOAc/water (20%)", "value": "No Solid"}, {"measurement": "Results (crystalline form)", "setting": "Test 177, meOH/acetone (50:50)", "value": "Form II"}, {"measurement": "Results (crystalline form)", "setting": "Test 188, DMF", "value": "Form II"}, {"measurement": "Results (crystalline form of precipitate)", "setting": "Test 199, solvent 2-butanol", "value": "Form II"}, {"measurement": "Results (crystalline form of precipitate)", "setting": "Test 210, solvent cumene", "value": "Form II"}, {"measurement": "Results (crystalline form of precipitate)", "setting": "Test 221, solvent ethyl formate", "value": "Form II"}, {"measurement": "Results (crystalline form of precipitate)", "setting": "Test 232, solvent isobutyl acetate", "value": "Form II"}, {"measurement": "Results (crystalline form of precipitate)", "setting": "Test 243, solvent 3-methyl-1-butanol", "value": "Form II"}, {"measurement": "Results (crystalline form of precipitate)", "setting": "Test 254, solvent anisole", "value": "Form II"}, {"measurement": "Results (crystalline form of precipitate)", "setting": "Test 265, solvent IPA/isopropyl acetate (1:2)", "value": "Form II"}, {"measurement": "Results (crystalline form of precipitate)", "setting": "Test 276, solvent EtOH: 1% H20", "value": "Form II"}, {"measurement": "Results (crystalline form of precipitate)", "setting": "Test 287, solvent EtOH: 3% H20", "value": "Form II"}, {"measurement": "Results (crystalline form of precipitate)", "setting": "Test 298, solvent EtOH: 5% H20", "value": "Form II"}, {"measurement": "Results (crystalline form of precipitate)", "setting": "Test 309, solvent IPA: 1% H20", "value": "Form II"}, {"measurement": "Results (crystalline form of precipitate)", "setting": "Test 320, solvent IPA: 3% H20", "value": "Form II"}, {"measurement": "Results (crystalline form of precipitate)", "setting": "Test 331, solvent IPA: 5% H20", "value": "Form II"}, {"measurement": "Results (crystalline form of precipitate)", "setting": "Test 342, solvent ACN: 1% H20", "value": "Form II"}, {"measurement": "Results (crystalline form of precipitate)", "setting": "Test 353, solvent ACN: 6% H20", "value": "Form II"}, {"measurement": "Results (crystalline form of precipitate)", "setting": "Test 364, solvent ACN: 12% H20", "value": "No Solid"}, {"measurement": "Results (crystalline form of precipitate)", "setting": "Test 375, solvent DMF: 5% H20", "value": "Form II"}, {"measurement": "Results (crystalline form of precipitate)", "setting": "Test 386, solvent DMF: 15% H20", "value": "Form II"}, {"measurement": "Results (crystalline form of precipitate)", "setting": "Test 397, solvent DMF: 30% H20", "value": "Form II"}, {"measurement": "Results (crystalline form of precipitate)", "setting": "Test 408, 1,4-dioxane: 1% H20", "value": "Form II"}, {"measurement": "Results (crystalline form of precipitate)", "setting": "Test 419, 1,4-dioxane: 3% H20", "value": "Form II"}, {"measurement": "Results (crystalline form of precipitate)", "setting": "Test 430, 1,4-dioxane: 10% H20", "value": "Form II"}, {"measurement": "Results (crystalline form of precipitate)", "setting": "Test 441, MeOH: 5% H20", "value": "Form II"}, {"measurement": "Results (crystalline form of precipitate)", "setting": "Test 452, MeOH: 20% H20", "value": "No Solid"}, {"measurement": "Results (crystalline form of precipitate)", "setting": "Test 463, MeOH: 50% H20", "value": "Form II"}, {"measurement": "Results (crystalline form of precipitate)", "setting": "Test 474, THF: 1% H20", "value": "Form II"}, {"measurement": "Results (crystalline form of precipitate)", "setting": "Test 485, THF: 3% H20", "value": "Form II"}, {"measurement": "Results (crystalline form of precipitate)", "setting": "Test 496, THF: 5% H20", "value": "No Solid"}, {"measurement": "Results (crystalline form of precipitate)", "setting": "Test 507, butan-1-ol: 1% H20", "value": "Form II"}, {"measurement": "Results (crystalline form of precipitate)", "setting": "Test 518, butan-1-ol: 3% H20", "value": "Form II"}, {"measurement": "Results (crystalline form of precipitate)", "setting": "Test 529, butan-1-ol: 5% H20", "value": "Form II"}, {"measurement": "Results (crystalline form of precipitate)", "setting": "Test 540, 1,4-dioxane", "value": "Form I"}, {"measurement": "Results (crystalline form of precipitate)", "setting": "Test 543, 1-butanol", "value": "Form I"}, {"measurement": "Results (crystalline form of precipitate)", "setting": "Test 546, ethanol", "value": "Form I"}, {"measurement": "Results (crystalline form of precipitate)", "setting": "Test 549, acetone", "value": "Form I"}, {"measurement": "Results (crystalline form of precipitate)", "setting": "Test 552, benzonitrile", "value": "Form I"}, {"measurement": "Results (crystalline form of precipitate)", "setting": "Test 555, cyclohexane", "value": "Form I"}, {"measurement": "Results (crystalline form of precipitate)", "setting": "Test 558, DCM", "value": "Form I"}, {"measurement": "Results (crystalline form of precipitate)", "setting": "Test 561, DMSO", "value": "Form I"}, {"measurement": "Results (crystalline form of precipitate)", "setting": "Test 564, EtOAc", "value": "Form I"}, {"measurement": "Results (crystalline form of precipitate)", "setting": "Test 567, Heptane", "value": "Form I"}, {"measurement": "Results (crystalline form of precipitate)", "setting": "Test 570, IPA", "value": "Form I"}, {"measurement": "Results (crystalline form of precipitate)", "setting": "Test 573, IPA: Water (1%)", "value": "Form I"}, {"measurement": "Results (crystalline form of precipitate)", "setting": "Test 576, MeCN", "value": "Form I"}, {"measurement": "Results (crystalline form of precipitate)", "setting": "Test 579, MeCN: Water (1%)", "value": "Form I"}, {"measurement": "Results (crystalline form of precipitate)", "setting": "Test 582, MEK", "value": "Form I"}, {"measurement": "Results (crystalline form of precipitate)", "setting": "Test 585, MeOAc", "value": "Form I"}, {"measurement": "Results (crystalline form of precipitate)", "setting": "Test 588, MeOH", "value": "Form I"}, {"measurement": "Results (crystalline form of precipitate)", "setting": "Test 591, MIBK", "value": "Form I"}, {"measurement": "Results (crystalline form of precipitate)", "setting": "Test 594, Nitromethane", "value": "Form I"}, {"measurement": "Results (crystalline form of precipitate)", "setting": "Test 597, TBME", "value": "Form I"}, {"measurement": "Results (crystalline form of precipitate)", "setting": "Test 600, THF", "value": "Form I"}, {"measurement": "Results (crystalline form of precipitate)", "setting": "Test 603, THF: water (1%)", "value": "Form I"}, {"measurement": "Results (crystalline form of precipitate)", "setting": "Test 606, toluene", "value": "Form I"}, {"measurement": "Results (crystalline form of precipitate)", "setting": "Test 609, water", "value": "No Solid"}]}
